Data as given in PubChem BioAssay AID1159584 (Peter MacCallum Cancer Centre, 2016)

- Screen: 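Knock-downs that harm CDH1-null cells more than parental MCF10A cells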 (primary screen)
- System: human MCF10A breast epithelial cells, parental and CDH1-null
- Reagent: siRNA against human genes
- Read-out: 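Cell viability by CellTiter-Glo ATP luminescence, each line scaled to the mean of mock wells across plates, then CDH1-null over parental ratio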
- Scale: CDH1-null / parental viability ratio: higher = CDH1-null cells survive relatively better than parental; CDH1-null viability vs mock: higher = more viable CDH1-null cells; parental viability vs mock: higher = more viable parental cells
In all, the deposit lists about 18,000 reagents; this is a random part of them. Reagent sequences are not shown. Not given: the amount of reagent, the time to read-out.

no.	target	CDH1-null / parental viability ratio	CDH1-null viability vs mock (fraction of mock)	parental viability vs mock (fraction of mock)
1	TARS3	0.84	0.57	0.68
2	CCL27	1.01	0.86	0.85
3	RNF112	1	0.9	0.9
4	SLC26A6	1.48	0.86	0.58
5	ARLN	1.19	0.51	0.43
6	STOX2	0.87	0.78	0.9
7	PLAC9	0.82	0.5	0.61
8	RFTN1	1.12	0.67	0.6
9	GRM5	0.95	0.78	0.82
10	UQCR10	1.13	1.02	0.9
11	GGCX	1	0.97	0.97

Records above whose target name starts with G or g:
target	CDH1-null / parental viability ratio	CDH1-null viability vs mock (fraction of mock)	parental viability vs mock (fraction of mock)
GRM5	0.95	0.78	0.82
GGCX	1	0.97	0.97

Additional entries follow:
no.	target	CDH1-null / parental viability ratio	CDH1-null viability vs mock (fraction of mock)	parental viability vs mock (fraction of mock)
12	CEP104	0.77	0.74	0.96
13	LHX8	1.38	0.99	0.72
14	FXYD6	0.92	0.73	0.79
15	HBQ1	1.34	0.94	0.7
16	LSM6	1.06	0.7	0.66
17	ANKMY2	0.99	0.76	0.77
18	C21orf58	0.93	0.68	0.73
19	OR1L3	1.18	0.78	0.66
20	GPX6	0.91	0.64	0.7
21	RPRD1B	1.17	0.94	0.8
22	ALOX12B	1.27	1.02	0.8
23	TSPAN15	0.97	0.74	0.76
24	ATIC	0.92	0.74	0.8
25	GFRA3	0.74	0.7	0.95
26	GAPDH	0.88	0.72	0.82
27	TENT5A	0.99	0.85	0.86
28	OR51I1	0.79	0.78	0.99
